PubChem BioAssay AID1347076 (National Center for Advancing Translational Sciences (NCATS), 2019)
In all, about 400,000 compounds went through this assay and about 13,000 (3.2%) were called active. The inconclusive results got no clear call from the source; some entries with a clear call stand among them for comparison. Calls follow the shape of the dose curve; as a rule, active = well fitted cell-killing curve with a large enough effect; inconclusive = small, poorly fitted or top-dose-only effect, or effect the other way; inactive = flat fitted curve, though single readings scatter. Where the call is inconclusive, the potency comes from a doubtful curve fit.

assay: qHTS assay for MDR1-selective chemotherapeutics: Primary screen using the drug-selected MDR subline cells KB-V1; settings: KB-V1 MDR cells viability, CellTiter-Glo, 72 h; series mostly up to 46.1 µM; also: nearly all actives have a fitted effect of over 60% in size
In short: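 Compound-treated KB-V1 multidrug-resistant cells, 72 h, 37 degrees C; viability by CellTiter-Glo. Fitted qHTS curves give the values.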
Potency is read from the fitted curve at half-maximal effect.

| Structure (SMILES) | Potency |
| --- | --- |
| CCCN(CCC)C(=O)Cn1c(=O)n(CCC(=O)NCCc2ccccc2)c(=O)c2ccccc21 | inconclusive: 10.3 µM [cytotoxic, partial curve] |
| CC(C)CN(C(=O)C1CCCC1)C1CCS(=O)(=O)C1 (stereo not drawn) | inactive |
| Cc1ccc(CNC(=O)C2CCCN(S(=O)(=O)c3c(C)noc3/C=C/N(C)C)C2)cc1 (stereo not drawn) | inactive |
| O=S(=O)(c1cccc(S(=O)(=O)N2CCN(c3ncccn3)CC2)c1)N1CCOCC1 | inconclusive: 29.1 µM [cytotoxic, single point] |
| N#Cc1c(NC(=O)c2ccccc2Cl)n(Cc2ccccc2)c2nc3ccccc3nc12 | inconclusive: 23.1 µM [cytotoxic, single point] |
| COc1ccc(OC(=O)c2cccc([N+](=O)[O-])c2)c(C(=O)/C=C/c2cccs2)c1 | inconclusive: 32.6 µM [cytotoxic, single point] |
| COc1cc(NC(=O)CCN2CCN(Cc3ccccc3)CC2)cc(OC)c1 | inactive |
| Cc1ccc(NC(=O)CSc2nnc(-c3ccccc3Br)o2)cc1C | inconclusive: 18.4 µM [cytotoxic, partial curve] |
| COc1cccc(CNC(=O)CCn2nc(C)c3c(C)n(-c4ccccc4)nc3c2=O)c1 | inactive |
| O=C(CSc1nnc(-c2ccncc2)n1-c1ccccc1)N1CCN(c2ccc(Cl)cc2)CC1 | active: 16.4 µM |
| CCN1C(N(C)C)=NC[C@@H]1Cc1ccccc1 | inconclusive: 18.4 µM [rising, single point] |
| O=C(Nc1nnc([C@@H]2C[C@H](O)[C@@H](CO)O2)s1)c1cccc(Cl)c1 | inactive |
| CC(NC(=O)c1cnc2ccccc2n1)c1ccccc1 (stereo not drawn) | inconclusive: 14.6 µM [cytotoxic, single point] |
| Cc1ccc(-c2cc(C(=O)Nc3nccs3)c3ccccc3n2)o1 | active: 7.31 µM |
| O=C(NC1CCCC1)C(c1ccc(F)cc1)N(C(=O)c1csnn1)C1CCCC1 (stereo not drawn) | inconclusive: 16.4 µM [cytotoxic, single point] |
| O=C(Nc1ccc(CN2CCCCC2)cc1)c1cccc(Br)c1 | inconclusive: 7.31 µM [cytotoxic, partial curve] |
| COc1ccc(CNC(=O)OCc2nccnc2C(=O)Nc2ccc(Br)cn2)cc1 | inactive |
| O=C(CCC1CCCN(Cc2cccc(Cl)c2)C1)NCc1ccccc1F (stereo not drawn) | inconclusive: 16.4 µM [cytotoxic, partial curve] |
| N=c1c(C(=O)NCC2CCCO2)cc2c(=O)n3ccccc3nc2n1CCCO (stereo not drawn) | inactive |
| COc1cc(C(=O)OCC(=O)N2CCCCC2C)ccc1OCc1c(C)noc1C (stereo not drawn) | inconclusive: 9.2 µM [cytotoxic, partial curve] |
| CCN(CC(=O)Nc1ccccc1OC)C(=O)Cn1cnc2ccccc2c1=O | inconclusive: 16.4 µM [cytotoxic, partial curve] |
| Cc1nn(CCCC(=O)NCCc2ccc(Cl)cc2)c(=O)c2c1sc1ccccc12 | inactive |
| O=C(Nc1ccc2ccccc2c1[N+](=O)[O-])c1ccccc1 | inconclusive: 14.6 µM [cytotoxic, partial curve] |
| O=C(O)c1[nH]c2ccccc2c1-c1ccccc1 | inconclusive: 29.1 µM [rising, single point] |
| O=C(CN1CCN(c2ccc(F)cc2)CC1)N1CCC(Cc2ccccc2)CC1 | inconclusive: 14.6 µM [cytotoxic, partial curve, poor fit] |

20 structures out of the list, sorted by molar mass, low to high.

| Structure (SMILES) | Potency |
| --- | --- |
| CCN1C(N(C)C)=NC[C@@H]1Cc1ccccc1 | inconclusive: 18.4 µM [rising, single point] |
| CC(NC(=O)c1cnc2ccccc2n1)c1ccccc1 (stereo not drawn) | inconclusive: 14.6 µM [cytotoxic, single point] |
| CC(C)CN(C(=O)C1CCCC1)C1CCS(=O)(=O)C1 (stereo not drawn) | inactive |
| O=C(Nc1ccc2ccccc2c1[N+](=O)[O-])c1ccccc1 | inconclusive: 14.6 µM [cytotoxic, partial curve] |
| Cc1ccc(-c2cc(C(=O)Nc3nccs3)c3ccccc3n2)o1 | active: 7.31 µM |
| O=C(Nc1ccc(CN2CCCCC2)cc1)c1cccc(Br)c1 | inconclusive: 7.31 µM [cytotoxic, partial curve] |
| COc1cc(NC(=O)CCN2CCN(Cc3ccccc3)CC2)cc(OC)c1 | inactive |
| O=C(CCC1CCCN(Cc2cccc(Cl)c2)C1)NCc1ccccc1F (stereo not drawn) | inconclusive: 16.4 µM [cytotoxic, partial curve] |
| O=C(CN1CCN(c2ccc(F)cc2)CC1)N1CCC(Cc2ccccc2)CC1 | inconclusive: 14.6 µM [cytotoxic, partial curve, poor fit] |
| N=c1c(C(=O)NCC2CCCO2)cc2c(=O)n3ccccc3nc2n1CCCO (stereo not drawn) | inactive |
| COc1ccc(OC(=O)c2cccc([N+](=O)[O-])c2)c(C(=O)/C=C/c2cccs2)c1 | inconclusive: 32.6 µM [cytotoxic, single point] |
| COc1cc(C(=O)OCC(=O)N2CCCCC2C)ccc1OCc1c(C)noc1C (stereo not drawn) | inconclusive: 9.2 µM [cytotoxic, partial curve] |
| O=C(NC1CCCC1)C(c1ccc(F)cc1)N(C(=O)c1csnn1)C1CCCC1 (stereo not drawn) | inconclusive: 16.4 µM [cytotoxic, single point] |
| Cc1ccc(NC(=O)CSc2nnc(-c3ccccc3Br)o2)cc1C | inconclusive: 18.4 µM [cytotoxic, partial curve] |
| COc1cccc(CNC(=O)CCn2nc(C)c3c(C)n(-c4ccccc4)nc3c2=O)c1 | inactive |
| Cc1nn(CCCC(=O)NCCc2ccc(Cl)cc2)c(=O)c2c1sc1ccccc12 | inactive |
| Cc1ccc(CNC(=O)C2CCCN(S(=O)(=O)c3c(C)noc3/C=C/N(C)C)C2)cc1 (stereo not drawn) | inactive |
| O=S(=O)(c1cccc(S(=O)(=O)N2CCN(c3ncccn3)CC2)c1)N1CCOCC1 | inconclusive: 29.1 µM [cytotoxic, single point] |
| CCCN(CCC)C(=O)Cn1c(=O)n(CCC(=O)NCCc2ccccc2)c(=O)c2ccccc21 | inconclusive: 10.3 µM [cytotoxic, partial curve] |
| O=C(CSc1nnc(-c2ccncc2)n1-c1ccccc1)N1CCN(c2ccc(Cl)cc2)CC1 | active: 16.4 µM |

(continued)

| Structure (SMILES) | Potency |
| --- | --- |
| Cn1c(N)c(C(=O)COC(=O)c2ccc(Cl)c(S(=O)(=O)N3CCCC3)c2)c(=O)n(C)c1=O | inconclusive: 20.6 µM [cytotoxic, single point] |
| CC(=O)NC12CC3CC(C1)CC(C(=O)N1CCN(S(=O)(=O)c4ccccc4C#N)CC1)(C3)C2 | inactive |
| Fc1ccccc1CSc1ccc(-c2ccco2)nn1 | inconclusive: 29.1 µM [cytotoxic, single point] |
| O=C(CSc1nnc(C2CC2)n1CC1CCCO1)Nc1ccc(Cl)cc1 (stereo not drawn) | inactive |
| Cc1ccc(OCC(=O)Nc2cccnc2Cl)cc1C | inactive |
| CC(C)OCCOc1ccc2oc(-c3ccco3)cc(=O)c2c1 | inconclusive: 7.31 µM [cytotoxic, partial curve] |
| COc1ccc(Nc2nnc(SCc3cn4c(C)cccc4n3)s2)cc1 | inconclusive: 23.1 µM [cytotoxic, single point] |
| CCOc1ccc2c(c1)C(c1cccs1)=NNC(c1cccnc1)=N2 | inconclusive: 18.4 µM [cytotoxic, single point] |
| COc1ccc(C(=O)/C=C/c2ccc(O)cc2)c2c1CC(O)C(C)(C)O2 (stereo not drawn) | inconclusive: 23.1 µM [cytotoxic, single point] |
| CC(C)(C)c1ccc(S(=O)(=O)NCCOCC(F)(F)C(F)F)cc1 | inconclusive: 18.4 µM [cytotoxic, single point] |
| Cn1nc(C(=O)NNc2c(F)c(F)cc(F)c2F)c2ccccc2c1=O | inconclusive: 11.6 µM [cytotoxic, partial curve] |
| O=C(Nc1c(Cl)cccc1Cl)Oc1cccc2cccnc12 | inconclusive: 25.9 µM [cytotoxic, partial curve, poor fit] |
| CCO[C@H]1OC(C(=O)N2CCOCC2)=C[C@@H](C2CC2)[C@@H]1CCCO | inactive |
| CCCc1[nH][nH]c(=O)c1C(c1cccc(Cl)c1)C(C#N)C#N (stereo not drawn) | inconclusive: 29.1 µM [cytotoxic, single point] |
| COc1ccc(OC)c(NC(=O)C2CCN(c3cc(-c4ccccc4)nc4ncnn34)CC2)c1 | active: 14.6 µM |
| O=C(NC(=S)NCC1CCCO1)C(c1ccccc1)c1ccccc1 (stereo not drawn) | inactive |
| COCCN(Cc1cc2cc3c(cc2nc1Cl)OCO3)C(=O)Nc1ccccc1OC | inactive |
| CCOc1ccc(NC(=O)c2cnn(-c3ccc(C)c(C)c3)c2C2CCN(C(=O)OC(C)(C)C)CC2)cc1 | inactive |
| CC1CCC2(CC1)NC(=O)N(CC(=O)Nc1cccc(C#N)c1)C2=O (stereo not drawn) | inactive |
| CCC1(CC)C(=O)N(c2ccccc2)C(=N)N(c2ccccc2)C1=O | inconclusive: 18.4 µM [cytotoxic, single point] |
| N#C/C(=C\c1ccc(N2CCOCC2)o1)C(=O)NC1CCCCC1 | inactive |
| CCCCNc1c(-c2cccc(Sc3ccc(OC)cc3)c2)nc2ccccn12 | inconclusive: 20.6 µM [cytotoxic, partial curve, poor fit] |
| CNc1cc(CSc2ccc(Cl)cc2)nc(C)n1 | inactive |
| CCOC(=O)C1CCN(C(=O)CN(Cc2ccc(Cl)cc2)S(C)(=O)=O)CC1 | inconclusive: 10.3 µM [cytotoxic, partial curve] |
| CS(=O)(=O)N(CC(=O)Nc1ccccc1C(=O)N1CCCC1)c1ccccc1Br | inconclusive: 29.1 µM [cytotoxic, single point] |

| Structure (SMILES) | Potency |
| --- | --- |
| COc1ccccc1N1CCN(C(=O)c2cn(C)c3ccc(S(=O)(=O)N(C)C4CCCCC4)cc3c2=O)CC1 | inactive |
| Cc1cccn2c(=O)c3cc(C(=O)NCc4ccco4)c(=N)n(C(C)C)c3nc12 | inconclusive: 32.6 µM [cytotoxic, single point] |
| O=c1cc(-c2ccccc2)[nH]c2ccc(F)cc12 | inconclusive: 2.59 µM [cytotoxic, full curve] |
| NC(=S)Nc1nc2ccccc2s1 | active: 8.2 µM |
| O=C(N/N=C/c1cccc([N+](=O)[O-])c1)c1ccc(COc2ccccc2-c2ccccc2)cc1 | active: 16.4 µM |
| CCN1CCC2(CC1)N=C(c1ccc(F)cc1)C(=S)N2C(=O)c1ccc(C)cc1 | inconclusive: 20.6 µM [cytotoxic, single point] |
| Cc1sc2nc(C3CC3)nc(N3CCN(C(=O)c4ccc(Cl)cc4)CC3)c2c1C | active: 18.4 µM |
| CC(C)OCCCn1c(NN)nc2ccccc2c1=O | inconclusive: 20.6 µM [cytotoxic, partial curve] |
| CC1=C(C(=O)Nc2ccccc2)C(c2ccc(C(=O)O)cc2)n2ncnc2N1 (stereo not drawn) | inconclusive: 2.59 µM [rising, full curve, poor fit] |
| CN(C)CCCNc1nc2cc(-c3ccc(F)cc3)sc2c(=O)n1C | inactive |
| CC(C)NC(=S)N/N=C1\CCCc2ccccc21 | inactive |
| Cc1ncc2c(n1)NC(=O)NC2 | inconclusive: 29.1 µM [rising, single point] |
| Cc1ccc(Oc2nc(CN3CCOCC3)nc3sc4c(c23)CCC(C)C4)cc1C (stereo not drawn) | active: 14.6 µM |
| COCC1CCN(C(=O)c2ccc(OC)c(OC3CCN(C(C)C)CC3)c2)CC1 | inconclusive: 14.6 µM [rising, partial curve, poor fit] |
| O=C(O)c1cccc(NC2=Nc3cccc4cccc2c34)c1 | inconclusive: 3.66 µM [cytotoxic, partial curve, poor fit] |
| O=C(Cc1ccc(Cl)c(Cl)c1)Nc1ccccc1N1CCOCC1 | inactive |
| NNC(=O)c1cc2c(N3CCC(Cc4ccccc4)CC3)ncnc2s1 | inconclusive: 13 µM [cytotoxic, partial curve] |
| CCOC(=O)C1CCCN(CC(O)COc2ccccc2C(C)=O)C1 (stereo not drawn) | inconclusive: 16.4 µM [cytotoxic, partial curve, poor fit] |
| Cc1cc(O)cc2c(=O)c3ccccc3sc12 | inconclusive: 29.1 µM [cytotoxic, single point] |
| Cc1cc(C)c2c(SC(C)C)nc(N)nc2n1 | inactive |
| CCc1ccc(/C=C2\Oc3cc(OC(=O)N4CCOCC4)ccc3C2=O)cc1 | active: 20.6 µM |
| Cc1nonc1OCC(C)(COc1nonc1C)NC(=O)c1ccccc1 | active: 18.4 µM |
| CCN(CC)S(=O)(=O)c1ccc2c(c1)nc(CCC(=O)Nc1ccc(N3CCOCC3)cc1)n2C | inactive |
